# Measured values as given in PubChem BioAssay (NCATS).
# Inconclusive means that the source gave no clear call. Such entries were picked first, then a sample of the others. For some assays here: Where the call is inconclusive, the potency comes from a doubtful curve fit. The source made the active and inactive calls. Calls follow the shape of the dose curve; as a rule, active = well fitted curve in the direction sought with a large enough effect; inconclusive = small, poorly fitted or top-dose-only effect, or another doubt; inactive = no such curve, though single readings can be large; an effect the other way counts as inactive or inconclusive. *1 amine or outer side, *2 acyl side, *3 side chain or, on linkers, in order; H or OH if unused. Where a SMILES comes first, the peptide text is derived from it. Bridges are numbered along the chain shown (N, C = ends). Roman numbers before positions name the chains, in order. [ ]: non-standard residue; d: D form. Actinocin(9to1) = Cc1c2oc3c(C)ccc(C(=O)[*:1])c3nc-2c(C(=O)[*:2])c(N)c1=O; NMeV = CN[C@H](C(=O)O)C(C)C; Sar = CNCC(=O)O
# Tests used:
# [1] = qHTS of pediatric cancer cell lines to identify multiple opportunities for drug repurposing: Confirmatory screen for RD cells (AID 1347124); settings: RD rhabdomyosarcoma cell viability; activity change, negative = cytotoxic: at 45.9 µM (top of the series);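 also: cells exposed to compound for 48 h before viability readout; nearly all actives have a fitted effect of over 65% in size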
# Summary of the method: (§1)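 Viability after 48 h compound treatment at 37C, 500-1,000 cells/well, read as ATP luminescence with CellTiter-Glo. Primary screens used 11-point (MIPE, 0.78 nM-46 µM) or 8-point (NPC, 0.59 nM-46 µM) final concentrations; follow-up screens used 11-point dilutions.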
# [2] = qHTS of pediatric cancer cell lines to identify multiple opportunities for drug repurposing: Confirmatory screen for Rh18 cells (AID 1347125); settings: Rh18 rhabdomyosarcoma cells, viability; activity change, negative = cytotoxic: at 45.9 µM (top of the series); also: nearly all actives have a fitted effect of over 55% in size
# Summary of the method: as §1
# [3] = qHTS of pediatric cancer cell lines to identify multiple opportunities for drug repurposing: Confirmatory screen for Rh30 cells (AID 1347126); settings: Rh30 rhabdomyosarcoma cell viability; series mostly up to 45.9 µM; also: nearly all actives have a fitted effect of over 55% in size
# Summary of the method: as §1
# [4] = qHTS of pediatric cancer cell lines to identify multiple opportunities for drug repurposing: Confirmatory screen for Saos-2 cells (AID 1347127); settings: Saos-2 osteosarcoma cell viability; series mostly up to 45.9 µM; also: nearly all actives have a fitted effect of over 60% in size
# Summary of the method: as §1
# [5] = qHTS of pediatric cancer cell lines to identify multiple opportunities for drug repurposing: Confirmatory screen for control Hh wild type fibroblast cells (AID 1347121); settings: viability qHTS; series mostly up to 45.9 µM; also: nearly all actives have a fitted effect of over 70% in size
# Summary of the method: as §1
# [6] = qHTS of pediatric cancer cell lines to identify multiple opportunities for drug repurposing: Confirmatory screen for Rh41 cells (AID 1347123); settings: Rh41 rhabdomyosarcoma cells, viability/cytotoxicity qHTS; series mostly up to 45.9 µM;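 also: 48 h compound exposure; nearly all actives have a fitted effect of over 60% in size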
# Summary of the method: as §1
# [7] = qHTS of pediatric cancer cell lines to identify multiple opportunities for drug repurposing: Confirmatory screen for U-2 OS cells (AID 1347122); settings: U-2 OS osteosarcoma cell viability; series mostly up to 45.9 µM; also: nearly all actives have a fitted effect of over 65% in size
# Summary of the method: as §1
# Potency is read from the fitted curve at half-maximal effect.
smiles,measurement,setting,value
OC[C@H]1O[C@@H](n2cnc3c(=S)nc[nH]c32)[C@H](O)[C@@H]1O,Potency,[1],inactive
same,Potency,[2],"inconclusive: 14.7 µM [cytotoxic, partial curve, poor fit]"
same,Potency,[3],"inconclusive: 2.08 µM [cytotoxic, full curve]"
CNC(=O)c1ccccc1Nc1nc(Nc2ccc(N3CCOCC3)cc2OC)ncc1Cl,Potency,[3],inactive
CC(C(C)N1CC(=O)NC(=O)C1)N1CC(=O)NC(=O)C1 (configuration not stated),Potency,[1],inactive
same,Potency,[2],inactive
same,Potency,[3],inactive
"Cc1c2oc3c(C)ccc(C(=O)N[C@@H]4C(=O)N[C@H](C(C)C)C(=O)N5CCC[C@H]5C(=O)N(C)CC(=O)N(C)[C@@H](C(C)C)C(=O)O[C@@H]4C)c3nc-2c(C(=O)N[C@@H]2C(=O)N[C@H](C(C)C)C(=O)N3CCC[C@H]3C(=O)N(C)CC(=O)N(C)[C@@H](C(C)C)C(=O)O[C@@H]2C)c(N)c1=O (I: T[dV]P[Sar][NMeV] / II: T[dV]P[Sar][NMeV]; ester I:1-I:C, II:1-II:C; linker I:N-II:N via Actinocin(9to1))",Potency,[1],"inconclusive: 0.0293 µM [cytotoxic, full curve]"
same,Potency,[2],"inconclusive: 0.0233 µM [cytotoxic, full curve]"
same,Potency,[4],"inconclusive: 0.0104 µM [cytotoxic, full curve, poor fit]"
CCOC(=O)N1CCN([N+]([O-])=NOc2ccc([N+](=O)[O-])cc2C#N)CC1,Potency,[1],"inconclusive: 0.737 µM [cytotoxic, full curve, poor fit]"
same,Potency,[2],"inconclusive: 18.5 µM [cytotoxic, partial curve, poor fit]"
same,Potency,[3],"inconclusive: 23.3 µM [cytotoxic, single point]"
same,Potency,[4],"inconclusive: 9.27 µM [cytotoxic, single point]"
C#Cc1cccc(Nc2ncnc3cc(OC)c(OCCCCCCC(=O)NO)cc23)c1,Potency,[5],active: 10.7 µM
same,Potency,[2],active: 1.91 µM
same,Potency,[3],active: 2.14 µM
CC(=O)[C@]1(O)Cc2c(O)c3c(c(O)c2[C@@H](O[C@H]2C[C@H](N)[C@@H](O)[C@H](C)O2)C1)C(=O)c1ccccc1C3=O,Potency,[5],"inconclusive: 13.1 µM [cytotoxic, partial curve, poor fit]"
same,Potency,[1],active: 0.737 µM
same,Potency,[4],inactive
Cc1ccc(C(=O)Nc2cccc(C(F)(F)F)c2)cc1-c1ccc2nc(NCCN3CCOCC3)ncc2c1,Potency,[5],"inconclusive: 9.27 µM [cytotoxic, partial curve, poor fit]"
same,Potency,[3],active: 5.22 µM
same,Potency,[4],active: 8.27 µM
CCC[C@H](Nc1nc(-c2ccc(NC(=O)NCC)c(OC)c2)ncc1C)c1cccnc1,Potency,[3],"inconclusive: 36.9 µM [cytotoxic, single point]"
same,Potency,[4],active: 0.208 µM
COC(=O)Nc1nc2ccc(C(=O)c3cccs3)cc2[nH]1,Potency,[5],inactive
same,Potency,[1],active: 0.233 µM
same,Potency,[3],inactive
same,Potency,[4],active: 0.131 µM
CN1CCCC(n2nc(Cc3ccc(Cl)cc3)c3ccccc3c2=O)CC1 (configuration not stated),Potency,[6],active: 8.27 µM
same,Potency,[1],"inconclusive: 32.9 µM [cytotoxic, single point]"
same,Potency,[2],"inconclusive: 36.9 µM [cytotoxic, single point]"
same,Potency,[3],inactive
CC(C)(O)Cn1c(NC(=O)c2ccc(-c3cn[nH]c3)s2)nc2cc(CN3CCOCC3)ccc21,Potency,[5],active: 5.22 µM
same,Potency,[4],active: 0.585 µM
Nc1ccc2cc3ccc(N)cc3nc2c1,Potency,[5],"inconclusive: 36.9 µM [cytotoxic, single point]"
same,Potency,[2],"inconclusive: 23.3 µM [cytotoxic, single point]"
same,Potency,[3],active: 7.37 µM
same,Potency,[4],"inconclusive: 36.9 µM [cytotoxic, single point]"
COCc1c(C(C)C)nc(C(C)C)c(/C=C/[C@@H](O)C[C@@H](O)CC(=O)O)c1-c1ccc(F)cc1,Potency,[7],active: 0.261 µM
same,Potency,[4],active: 0.0657 µM
CCOc1cc(N2CCC(O)CC2)ccc1Nc1ncc2c(n1)N(C)c1ccccc1C(=O)N2C,Potency,[7],"inconclusive: 6.57 µM [cytotoxic, partial curve]"
same,Potency,[1],"inconclusive: 36.9 µM [cytotoxic, single point]"
same,Potency,[2],"inconclusive: 3.69 µM [cytotoxic, full curve]"
same,Potency,[3],"inconclusive: 14.7 µM [cytotoxic, partial curve]"
same,Potency,[4],"inconclusive: 4.14 µM [cytotoxic, partial curve]"
CN(C)/N=N/c1nc[nH]c1C(N)=O,Potency,[1],inactive

# Four entries from above, tab-delimited:
smiles	measurement	setting	value
OC[C@H]1O[C@@H](n2cnc3c(=S)nc[nH]c32)[C@H](O)[C@@H]1O	Potency	[2]	inconclusive: 14.7 µM [cytotoxic, partial curve, poor fit]
same	Potency	[3]	inconclusive: 2.08 µM [cytotoxic, full curve]
COC(=O)Nc1nc2ccc(C(=O)c3cccs3)cc2[nH]1	Potency	[3]	inactive
same	Potency	[4]	active: 0.131 µM
